Values of other authors, collected in patent publication US20180354980A1, “NOVEL TRITERPENE-GLYCOSIDES AS SWEETENERS OR SWEETENER ENHANCER” (Analyticon Discovery GmbH, priority 2015, published 2018).
Some entries share one result that the patent states for a list of compounds. At least one compound was matched to its structure with a doubt left.

Conditions: in vivo; cited from earlier work

| Compound | sweetness relative to sucrose |
| --- | --- |
| C[C@H](CC[C@@H](O[C@@H]1O[C@H](CO[C@@H]2O[C@H](CO)[C@@H](O)[C@H](O)[C@H]2O)[C@@H](O)[C@H](O)[C@H]1O[C@@H]1O[C@H](CO)[C@@H](O)[C@H](O)[C@H]1O)C(C)(C)O)[C@H]1CC[C@@]2(C)[C@@H]3CC=C4[C@@H](CC[C@H](O[C@@H]5O[C@H](CO)[C@@H](O[C@@H]6O[C@H](CO)[C@@H](O)[C@H](O)[C@H]6O)[C@H](O)[C@H]5O)C4(C)C)[C@]3(C)[C@H](O)C[C@]12C [iso-mogroside V] | > 100 × sweeter than sucrose |
| C[C@H](CC[C@@H](O[C@@H]1O[C@H](CO[C@@H]2O[C@H](CO)[C@@H](O)[C@H](O)[C@H]2O)[C@@H](O)[C@H](O)[C@H]1O[C@@H]1O[C@H](CO)[C@@H](O)[C@H](O)[C@H]1O)C(C)(C)O)[C@H]1CC[C@@]2(C)[C@@H]3CC=C4[C@@H](CC[C@H](O[C@@H]5O[C@H](CO[C@@H]6O[C@H](CO)[C@@H](O)[C@H](O)[C@H]6O)[C@@H](O)[C@H](O)[C@H]5O)C4(C)C)[C@]3(C)[C@H](O)C[C@]12C [mogroside V] | > 100 × sweeter than sucrose |
